Measured values: patent US20070054353A1, “Nuclear receptor transcriptional corepressor and uses thereof” (priority 2002, published 2007)
Results are given in words; binding and its absence hold for the method and conditions named. In cells and extracts the contact can be indirect. Some results given as binding are weak or reduced against the parent protein; the word gives no strength. Where a sequence is shown, tags or fusion partners need not be part of it.

Amino acid sequences for entries named in this document (tags omitted).
UniProt P03372: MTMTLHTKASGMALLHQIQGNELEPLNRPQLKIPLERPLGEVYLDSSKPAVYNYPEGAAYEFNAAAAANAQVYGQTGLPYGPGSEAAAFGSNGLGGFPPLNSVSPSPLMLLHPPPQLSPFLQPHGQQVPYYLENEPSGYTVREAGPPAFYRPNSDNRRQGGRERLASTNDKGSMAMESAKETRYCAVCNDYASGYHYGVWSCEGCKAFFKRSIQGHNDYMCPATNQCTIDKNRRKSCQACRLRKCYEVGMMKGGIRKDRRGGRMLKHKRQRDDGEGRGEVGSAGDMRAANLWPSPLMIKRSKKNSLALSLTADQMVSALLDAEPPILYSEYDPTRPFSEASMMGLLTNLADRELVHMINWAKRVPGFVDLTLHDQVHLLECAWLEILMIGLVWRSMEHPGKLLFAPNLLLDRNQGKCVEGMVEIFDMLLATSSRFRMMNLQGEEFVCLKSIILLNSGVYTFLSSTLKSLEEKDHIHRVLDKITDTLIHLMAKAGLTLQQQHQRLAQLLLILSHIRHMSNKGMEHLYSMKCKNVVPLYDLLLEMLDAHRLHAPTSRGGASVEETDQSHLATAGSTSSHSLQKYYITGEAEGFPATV

Target: T1, GST-LCoR (human) (UniProt Q96JN0)
T1 sequence: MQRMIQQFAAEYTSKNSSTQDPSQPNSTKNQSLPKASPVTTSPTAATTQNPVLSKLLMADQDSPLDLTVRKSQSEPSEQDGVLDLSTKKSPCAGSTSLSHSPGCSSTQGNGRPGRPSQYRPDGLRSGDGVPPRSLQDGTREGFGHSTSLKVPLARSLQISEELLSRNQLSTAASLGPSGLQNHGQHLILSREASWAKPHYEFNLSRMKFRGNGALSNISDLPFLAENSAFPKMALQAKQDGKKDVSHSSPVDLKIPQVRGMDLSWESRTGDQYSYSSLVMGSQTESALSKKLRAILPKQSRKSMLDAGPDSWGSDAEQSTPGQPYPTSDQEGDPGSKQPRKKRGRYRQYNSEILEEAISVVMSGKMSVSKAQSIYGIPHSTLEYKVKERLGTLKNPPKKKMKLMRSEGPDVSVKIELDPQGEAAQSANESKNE
Test: GST pull-down, in vitro translated ERα (HEG0) on GST-LCoR

In the case of “ERα (estrogen receptor α) (from UniProt P03372 1-595)”, the binding is reported as “binds”.
